In patent publication US20200181278A1 (MITSUBISHI TANABE PHARMA, published 2020) one finds binding data, which are given here for nine molecules.

Assay [1] concerns the target T1, human CD138 (syndecan-1) on cells (human) (UniProt P18827).
T1 sequence: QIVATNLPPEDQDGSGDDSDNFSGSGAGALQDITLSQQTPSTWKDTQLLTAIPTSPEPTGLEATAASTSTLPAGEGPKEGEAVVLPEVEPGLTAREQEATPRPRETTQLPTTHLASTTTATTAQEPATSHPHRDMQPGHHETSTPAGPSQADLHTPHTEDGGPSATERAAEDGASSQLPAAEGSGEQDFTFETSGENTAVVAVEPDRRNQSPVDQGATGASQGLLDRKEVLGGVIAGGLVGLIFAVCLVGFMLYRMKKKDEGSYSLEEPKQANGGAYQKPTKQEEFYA
Kind of assay: FACS on RT112/84 bladder cancer cells (endogenous human CD138).

Assay [2] deals with T1, human CD138 (syndecan-1) on cells (human). The assay can be described thus: FACS on KMS-11 multiple myeloma cells (endogenous human CD138).

These are yes or no findings as the source states them, for the method shown. Some entries that bind do so weakly or less than the wild type.

B1: F6 f1ka-rep (antibody, V domains shown)
VH: QVQLQQSGAEVVKPGASVKLSCKASGYTFTSYYLYWVKKAPGQGLDWIGEIYPRSGGTNINEKFLSRVTLTADTSTSTAYMDLSSLTSEDTAVYYCTRSLLYWGQGTTLTVSS
VL: DVVMTQTPLSLSVTPGQPASISCKSSQSLLASDGKTYLNWLLQRPGQSPKRLIYLVSKLDSGVPNRFSGSGSGTDFTLQISRVEAEDVGLYYCMQGAHFPFTFGGGTKVEIKR
Turning to B1, the binding result in assay [1] and in assay [2] was “binds” throughout.

B2: F6 f1kf-rep (antibody, V domains shown)
VH: QVQLQQSGAEVVKPGASVKLSCKASGYTFTSYYLYWVKKAPGQGLDWIGEIYPRSGGTNINEKFLSRVTLTADTSTSTAYMDLSSLTSEDTAVYYCTRSLLYWGQGTTLTVSS
VL: DVVMTQSPLSLSVTLGQPASISCKSSQSLLASDGKTYLNWLQQRPGQSPRRLIYLVSKLDSGVPNRFSGSGSGTDFTLQISRVEAEDVGLYYCWQGAHFPFTFGSGTKLEIKR
Consider B2, for which the binding entry in assay [1] and in assay [2] was “binds” each time.

B3: F6 akf-rep (antibody, V domains shown)
VH: QVQLVQSGAEVVKPGASVKLSCKASGYTFTSYYLYWVKKAPGQGLDWIGEIYPRSGGTNYAEKFQGRVTLTADTSTSTAYLELSSLTSEDTAVYYCTRSLLYWGQGTTLTVSS
VL: DVVMTQSPLSLSVTLGQPASISCKSSQSLLASDGKTYLNWLQQRPGQSPRRLIYLVSKLDSGVPNRFSGSGSGTDFTLQISRVEAEDVGLYYCWQGAHFPFTFGSGTKLEIKR
For B3, the binding entry in assay [1] and in assay [2] was “binds” in each case.

B4: F6 cks-rep (antibody, V domains shown)
VH: QVQLVQSGAEVVKPGASVKLSCKASGYTFTSYYLYWVKKAPGQGLDWIGEIYPRSGGTNINEKFLSRVTLTADTSTSTAYLELSSLTSEDTAVYYCTRSLLYWGQGTTLTVSS
VL: DVVMTQTPLSLSVTPGQPASISCKSSQSLLASDGKTYLNWLLQRPGQSPKRLIYLVSKLDSGVPNRFSGSGSGTDFTLQISRVEAEDVGLYYCWQGAHFPFTFGSGTKLEIKR
In the case of B4, the binding entry in assay [1] and in assay [2] was “binds” each time.

B5: F6 f2kf-rep (antibody, V domains shown)
VH: QVQLQQSGAEVVKPGASVKLSCKASGYTFTSYYLYWVKKAPGQGLDWIGEIYPRSGGTNINEKFLSRVTITADESTSTVYMQLSSLTSEDSAVYYCTRSLLYWGQGTTLTVSS
VL: DVVMTQSPLSLSVTLGQPASISCKSSQSLLASDGKTYLNWLQQRPGQSPRRLIYLVSKLDSGVPNRFSGSGSGTDFTLQISRVEAEDVGLYYCWQGAHFPFTFGSGTKLEIKR
For B5, the binding result in assay [1] and in assay [2] was “binds” throughout.

B6: F6 f1ks-rep (antibody, V domains shown)
VH: QVQLQQSGAEVVKPGASVKLSCKASGYTFTSYYLYWVKKAPGQGLDWIGEIYPRSGGTNINEKFLSRVTLTADTSTSTAYMDLSSLTSEDTAVYYCTRSLLYWGQGTTLTVSS
VL: DVVMTQTPLSLSVTPGQPASISCKSSQSLLASDGKTYLNWLLQRPGQSPKRLIYLVSKLDSGVPNRFSGSGSGTDFTLQISRVEAEDVGLYYCWQGAHFPFTFGSGTKLEIKR
In the case of B6, the binding entry in assay [1] and in assay [2] was “binds” throughout.

B7: F6 cka-rep (antibody, V domains shown)
VH: QVQLVQSGAEVVKPGASVKLSCKASGYTFTSYYLYWVKKAPGQGLDWIGEIYPRSGGTNINEKFLSRVTLTADTSTSTAYLELSSLTSEDTAVYYCTRSLLYWGQGTTLTVSS
VL: DVVMTQTPLSLSVTPGQPASISCKSSQSLLASDGKTYLNWLLQRPGQSPKRLIYLVSKLDSGVPNRFSGSGSGTDFTLQISRVEAEDVGLYYCMQGAHFPFTFGGGTKVEIKR
As for B7, the binding entry in assay [1] and in assay [2] was “binds” throughout.

B8: F6 ckf-rep (antibody, V domains shown)
VH: QVQLVQSGAEVVKPGASVKLSCKASGYTFTSYYLYWVKKAPGQGLDWIGEIYPRSGGTNINEKFLSRVTLTADTSTSTAYLELSSLTSEDTAVYYCTRSLLYWGQGTTLTVSS
VL: DVVMTQSPLSLSVTLGQPASISCKSSQSLLASDGKTYLNWLQQRPGQSPRRLIYLVSKLDSGVPNRFSGSGSGTDFTLQISRVEAEDVGLYYCWQGAHFPFTFGSGTKLEIKR
As for B8, the binding result in assay [1] and in assay [2] was “binds” each time.

B9: F6 aks-rep (antibody, V domains shown)
VH: QVQLVQSGAEVVKPGASVKLSCKASGYTFTSYYLYWVKKAPGQGLDWIGEIYPRSGGTNYAEKFQGRVTLTADTSTSTAYLELSSLTSEDTAVYYCTRSLLYWGQGTTLTVSS
VL: DVVMTQTPLSLSVTPGQPASISCKSSQSLLASDGKTYLNWLLQRPGQSPKRLIYLVSKLDSGVPNRFSGSGSGTDFTLQISRVEAEDVGLYYCWQGAHFPFTFGSGTKLEIKR
Consider B9, for which the binding entry in assay [1] and in assay [2] was “binds” in each case.
